Reference: PubChem BioAssay AID1347076 (National Center for Advancing Translational Sciences (NCATS), 2019)
Among all 400,000 compounds or so, about 13,000 (3.2%) were called active. This list was built around the results that the source calls inconclusive (neither active nor inactive); the mix of calls is not that of the screen. Calls come from the whole dose curve; as a rule, active = well fitted cell-killing curve with a large enough effect; inconclusive = small, poorly fitted or top-dose-only effect, or effect the other way; inactive = flat fitted curve, though single readings scatter. A potency beside an inconclusive call is a rough fit, not a confirmed value.

assay: qHTS assay for MDR1-selective chemotherapeutics: Primary screen using the drug-selected MDR subline cells KB-V1; conditions: KB-V1 MDR cells viability, CellTiter-Glo, 72 h; activity change, negative = cytotoxicity: at 46.1 µM (top of the series); note: nearly all actives have a fitted effect of over 60% in size
Outline: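 Compound-treated KB-V1 multidrug-resistant cells, 72 h, 37 degrees C; viability by CellTiter-Glo. Fitted qHTS curves give the values.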
% is set by controls: 0 for no effect and ±100 for the full control effect; potency is the fitted concentration of half-maximal effect.

Row | Structure (SMILES) | activity change, negative = cytotoxicity | Potency
1 | Cc1ccc(C(=O)Nc2ccc(C(=O)O)cc2)cc1S(=O)(=O)N1CCC(C)CC1 | inactive: -4.79% | –
2 | O=C1c2ccccc2C(=O)N1CCc1csc(-c2ccc(F)cc2)n1 | – | inconclusive: 20.6 µM [cytotoxic, single point]
3 | COC(=O)c1cc(C(=O)N2CCN(c3ncccn3)CC2)cc([N+](=O)[O-])c1 | – | inconclusive: 20.6 µM [rising, single point]
4 | COc1ccc(-c2c(C(F)(F)F)[nH]n3c(=O)cc(-c4ccccc4)nc23)cc1 | – | inconclusive: 23.1 µM [cytotoxic, single point]
5 | CCC(C)(C)n1nnnc1C(c1cc2cc3c(cc2[nH]c1=O)OCO3)N1CCCCC1 (stereo not given) | – | inconclusive: 18.4 µM [cytotoxic, partial curve]
6 | O=C1CN(C(=O)COc2c(Cl)cccc2Cl)c2ccccc2N1 | – | inconclusive: 32.6 µM [cytotoxic, single point]
7 | CCOC(=O)c1ccccc1NC(=O)CN1C(=O)CC(c2ccccc2)Sc2ccccc21 (stereo not given) | – | active: 11.6 µM
8 | COC1CCC2(C)C(=CCC3C4CC(O)CC4(C)CCC32)C1 (stereo not given) | – | active: 18.4 µM
9 | CC(=O)Nc1ccccc1N(C)S(=O)(=O)c1ccc(C)cc1 | – | inconclusive: 29.1 µM [cytotoxic, single point]
10 | Cc1ccc(NC(=O)/C=C/c2ccco2)cc1F | inactive: -5.16% | –
11 | Cc1cc(/C=N/NC(=O)c2cccs2)c(C)n1-c1ccccc1 | – | inconclusive: 29.1 µM [cytotoxic, single point]
12 | O=C(NCc1ccc(Cl)cc1)C1CCC(CNS(=O)(=O)c2ccccc2)CC1 (stereo not given) | – | inactive
13 | O=C(COc1ccccc1)Nc1cccc(-c2nc3ccccc3[nH]2)c1 | – | inconclusive: 29.1 µM [cytotoxic, single point]
14 | Cc1nn(C(C)C(=O)O)c(C)c1[N+](=O)[O-] (stereo not given) | – | inconclusive: 0.731 µM [rising, full curve, poor fit]
15 | Cn1c(-c2ccc3ccccc3n2)nc2cnccc21 | – | active: 10.3 µM
16 | COC(=O)COc1ccc(Oc2cc(C)nc(SC)n2)nn1 | – | inconclusive: 32.6 µM [rising, single point]
17 | CCCCOc1ccc(C(=O)NCCc2sc3nc(-c4ccc(OC)cc4)nn3c2C)cc1 | inactive: -4.78% | –
18 | COc1ccc(C(=O)Nc2ccc(Cc3ccncc3)cc2)cc1Br | – | inconclusive: 29.1 µM [cytotoxic, single point]
19 | Cc1ccc(SCCC(=O)N/N=C/c2ccncc2)cc1 | – | inconclusive: 29.1 µM [cytotoxic, single point]
20 | CCc1ccccc1NC(=O)CCC(=O)N1CC(C)Oc2ccc(C)cc21 (stereo not given) | inactive: -11.7% | –
21 | CN(C)C(CNC(=O)c1ccc2[nH]c(=O)c(=O)[nH]c2c1)c1ccco1 (stereo not given) | – | inconclusive: 2.91 µM [rising, full curve, poor fit]
22 | C/C(=N\NC(=O)c1ccc(CSc2cccc3cccnc23)cc1)C1CCCCC1 | – | inconclusive: 20.6 µM [cytotoxic, single point]
23 | COc1ccc2cc(CCNC(=O)CCc3ccccc3)c(=O)[nH]c2c1 | – | inconclusive: 29.1 µM [rising, single point]
24 | Cc1cc(C)c(NC(=O)CNC(=O)CNC(=O)C2CCCCC2)c(C)c1 | inactive: -1.67% | –

No new results follow: two of the compounds above.
Row | Structure (SMILES) | activity change, negative = cytotoxicity | Potency
22 | C/C(=N\NC(=O)c1ccc(CSc2cccc3cccnc23)cc1)C1CCCCC1 | – | inconclusive: 20.6 µM [cytotoxic, single point]
23 | COc1ccc2cc(CCNC(=O)CCc3ccccc3)c(=O)[nH]c2c1 | – | inconclusive: 29.1 µM [rising, single point]

Continued:

Row | Structure (SMILES) | activity change, negative = cytotoxicity | Potency
25 | CSc1ncccc1C(=O)OCc1cccc([N+](=O)[O-])c1 | – | inconclusive: 23.1 µM [rising, single point]
26 | CCOc1ccc2nc(SCC(=O)Nc3ccc4c(c3)OCO4)sc2c1 | – | active: 16.4 µM
27 | COC(=O)c1ccc(NC(=O)c2ccc(NC(=O)C3CCCO3)cc2)cc1 (stereo not given) | inactive: -8.39% | –
28 | Cc1ccc(/C=C/C2=NN(C)C(=O)CC2)cc1 | – | inconclusive: 29.1 µM [cytotoxic, single point]
29 | O=C(Cn1cc(C(=O)c2ccccc2)c(=O)c2cc3c(cc21)OCCO3)Nc1ccc(F)c(F)c1 | inactive: 0.0823% | –
30 | CCOc1ccccc1CNS(=O)(=O)c1cc2c(cc1C)NC(=O)CO2 | inactive: -11.8% | –
31 | Cc1nc(-c2ccc(C(=O)Nc3ccccc3F)cc2)cs1 | – | active: 11.6 µM
32 | CCOC(=O)C(=CNc1cccc(N)n1)C(=O)OCC | – | inconclusive: 16.4 µM [cytotoxic, partial curve]
33 | O=C(Cn1cc(S(=O)(=O)Cc2ccccc2Cl)c2ccccc21)NCCc1ccccc1 | inactive: -22% | –
34 | Cn1c(=O)n(C)c2cc(S(=O)(=O)Nc3ccccc3O)ccc21 | – | inconclusive: 18.4 µM [cytotoxic, single point]
35 | COc1ccc(OC)c(NC(=O)Nc2cccc3ccccc23)c1 | – | active: 7.31 µM
36 | O=C(CN1C(=O)c2ccccc2S1(=O)=O)Nc1ncc(Cl)cc1Cl | – | inconclusive: 29.1 µM [rising, single point]
37 | CN(C)CC1CCCCC1OC(=O)c1ccc(Cl)cc1 (stereo not given) | – | inconclusive: 14.6 µM [cytotoxic, partial curve, poor fit]
38 | C=C(C)C1Cc2c(C)nn(-c3cccc4ccccc34)c2C1 (stereo not given) | – | inconclusive: 20.6 µM [cytotoxic, single point]
39 | O=C(NC(=S)NNC(=O)c1ccco1)c1ccc(Br)cc1 | inactive: 11.8% | –
40 | O=C(CSc1ccc(-c2ccco2)nn1)N1CCCCC1 | – | inconclusive: 13 µM [cytotoxic, partial curve]
41 | O=C(N/N=C/c1ccccn1)c1cc(-c2ccc(Cl)s2)[nH]n1 | inactive: -3.42% | –
42 | COc1ccc(NC(=O)CC2C(=O)N(c3cccc(OC)c3)C(=O)N2CCC2=CCCCC2)cc1 (stereo not given) | inactive: -21.8% | –
43 | CCCS(=O)(=O)c1nc(S(=O)(=O)c2ccc(C)cc2)c(N2CCC3(CC2)OCCO3)s1 | – | inconclusive: 29.1 µM [cytotoxic, single point]
44 | NC(=O)N/N=C/c1c(O)ccc2oc3c(c12)CCCC3 | – | inconclusive: 8.2 µM [cytotoxic, partial curve, poor fit]
45 | CCN(CC)CCNc1ncnc2c1sc1nc(N3CCCC3)c3c(c12)CC(C)(C)OC3 | inactive: -18% | –
46 | COc1ccc(NC(=O)CCNS(=O)(=O)c2ccc3c(c2)CCCC(=O)N3)cc1 | inactive: -1.34% | –
47 | CCn1nnc2cc(C(=O)Nc3cc(C)ccc3C)ccc21 | – | inconclusive: 23.1 µM [cytotoxic, single point]
48 | COc1ccc(NS(=O)(=O)c2cccc(C(=O)N3CCCCCC3)c2)cc1 | – | inconclusive: 18.4 µM [cytotoxic, single point]

Row | Structure (SMILES) | activity change, negative = cytotoxicity | Potency
49 | CCN(C[C@H]1N[C@@](C)(C(=O)OC)[C@H]2C(=O)N(Cc3ccccc3)C(=O)[C@@H]12)S(=O)(=O)c1ccccc1 | inactive: 0.0002% | –
50 | CC(C)(C)c1ccc2cc(F)cc(F)c2n1 | inactive: 8.37% | –
51 | O=C(OCc1ccccc1)/C(=C/c1cccc(Br)c1)NC(=O)c1ccco1 | – | inconclusive: 16.4 µM [cytotoxic, single point]
52 | COc1ccc(CN(C)C(=O)c2cc(-c3ccccc3)nc3ccc(C)cc23)c(OC)c1 | – | inconclusive: 23.1 µM [cytotoxic, partial curve, poor fit]
53 | C[C@]12C(=O)N(c3ccc(Cl)cc3)C(=O)N1[C@H]1c3ccccc3OC[C@@H]1[C@H]2c1ccccc1 | inactive: -10.3% | –
54 | Clc1ccc(CN(Cc2ccccc2)C(c2cccs2)c2nnnn2C2CCCC2)cc1 (stereo not given) | – | inconclusive: 25.9 µM [cytotoxic, partial curve, poor fit]
55 | COC(=O)c1c(NC(=O)CSc2nnc(-c3ccco3)n2Cc2ccccc2)sc(C)c1C | – | inconclusive: 11.6 µM [cytotoxic, partial curve]
56 | COC(=O)c1cc(N=Nc2c(C)[nH]c3ccccc23)cc(C(=O)OC)c1 | – | inconclusive: 20.6 µM [cytotoxic, single point]
57 | COc1ccc(-c2nsc3c(N4CCN(C(=O)c5ccco5)CC4)ncnc23)cc1 | – | inconclusive: 20.6 µM [cytotoxic, partial curve, poor fit]
58 | Cc1c(C(=O)O)sc2[nH]c(=O)n(Cc3ccccc3)c(=O)c12 | inactive: 1.14% | –
59 | COC(=O)c1c(C)[nH]c(C(=O)OCC(=O)c2ccc(C)s2)c1C | inactive: 1.44% | –
60 | O=C(Nc1ccc(Br)cc1)c1ccc(N2C(=O)C3CC=C(Cl)CC3C2=O)cc1 (stereo not given) | – | inconclusive: 25.9 µM [cytotoxic, partial curve, poor fit]
61 | Cn1nccc1C(=O)NC1CCCc2c1cnn2-c1ccccc1F (stereo not given) | – | inconclusive: 0.58 µM [cytotoxic, full curve, poor fit]
62 | O=C(C1COc2ccccc2O1)N1CCN(Cc2ccc(Br)cc2F)CC1 (stereo not given) | – | inconclusive: 8.2 µM [cytotoxic, partial curve]
63 | CC1(C(=O)Nc2ccc(F)c(Cl)c2)Cc2c(-c3ccccc3)ccnc2O1 (stereo not given) | – | inconclusive: 23.1 µM [cytotoxic, single point]
64 | O=c1c2sc3nc(N4CCOCC4)c4c(c3c2ncn1-c1ccccc1)CCCC4 | – | inconclusive: 1.84 µM [cytotoxic, full curve]
65 | CC(=O)Nc1ccc(NS(=O)(=O)c2cccc3nonc23)cc1 | – | inconclusive: 29.1 µM [rising, single point]
66 | Cc1ccc(Nc2nnc(SC(C)C(=O)NCC3CCCO3)s2)cc1 (stereo not given) | – | inconclusive: 29.1 µM [cytotoxic, partial curve, poor fit]
67 | CCc1ccccc1NC(=S)N(CCN1CCOCC1)Cc1ccccc1F | – | inconclusive: 5.8 µM [cytotoxic, partial curve]
68 | S=C(Nc1ccc(Cl)cc1)N1CCOCC1 | – | inconclusive: 23.1 µM [rising, partial curve, poor fit]
69 | COc1cccc(-c2nnc(NC(=O)c3ccc4ncsc4c3)o2)c1 | – | inconclusive: 7.31 µM [cytotoxic, partial curve]
70 | CC1CN/C(=C\C(=O)c2ccc(Cl)cc2)C(=O)N1 (stereo not given) | – | inconclusive: 25.9 µM [cytotoxic, single point]

A second format for some results above:
Row	Structure (SMILES)	activity change, negative = cytotoxicity	Potency
49	CCN(C[C@H]1N[C@@](C)(C(=O)OC)[C@H]2C(=O)N(Cc3ccccc3)C(=O)[C@@H]12)S(=O)(=O)c1ccccc1	inactive: 0.0002%	–
50	CC(C)(C)c1ccc2cc(F)cc(F)c2n1	inactive: 8.37%	–
51	O=C(OCc1ccccc1)/C(=C/c1cccc(Br)c1)NC(=O)c1ccco1	–	inconclusive: 16.4 µM [cytotoxic, single point]
52	COc1ccc(CN(C)C(=O)c2cc(-c3ccccc3)nc3ccc(C)cc23)c(OC)c1	–	inconclusive: 23.1 µM [cytotoxic, partial curve, poor fit]
